One molecule from the supplement of paper PMC8728848 can be followed below.

The list shows a part of the results.

Holding throughout (experiment): glycan array binding signal (z-score within array); higher = stronger binding
Common to all, as to details: glycan notation: IUPAC condensed, linker removed

The target of one assay is Fuc(a1-2)Gal. Summed up:
(§1)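 The binding signal is a Z-score computed within each array. Data were drawn from 3228 arrays in the Consortium for Functional Glycomics database, restricted to those with a known protein sequence. Scores were averaged over arrays of the same protein sequence at different concentrations or buffers, and over linkers, and negative values can be taken as non-binding.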

Another assay addresses Fuc(a1-2)Gal(b1-3)GalNAc. The essentials:
as §1

Assay [1] addresses Fuc(a1-2)Gal(b1-3)GalNAc(b1-3)Gal. Summed up:
as §1

The target in assay [2] is Fuc(a1-2)Gal(b1-3)GalNAc(b1-3)Gal(a1-4)Gal(b1-4)Glc. The essentials: as §1
The target in assay [3] is Fuc(a1-2)Gal(b1-3)GalNAc(b1-4)[Neu5Ac(a2-3)]Gal(b1-4)Glc. The essentials:
as §1

In a further assay the target is Fuc(a1-2)Gal(b1-3)GlcNAc. The essentials: as §1
For assay [4], the target named is Fuc(a1-2)Gal(b1-3)GlcNAc(b1-2)Man(a1-3)[Fuc(a1-2)Gal(b1-3)GlcNAc(b1-2)Man(a1-6)]Man(b1-4)GlcNAc(b1-4)GlcNAc. Summed up: as §1
Assay [5] deals with Fuc(a1-2)Gal(b1-3)GlcNAc(b1-3)Gal(b1-4)Glc. The essentials: as §1
For assay [6], the target named is Fuc(a1-2)Gal(b1-3)GlcNAc(b1-3)[Gal(b1-4)[Fuc(a1-3)]GlcNAc(b1-6)]Gal(b1-4)Glc. The essentials:
as §1

For assay [7], the target named is Fuc(a1-2)Gal(b1-3)[Fuc(a1-4)]GlcNAc. The essentials:
as §1

In assay [8] the target is Fuc(a1-2)Gal(b1-3)[Fuc(a1-4)]GlcNAc(b1-2)Man(a1-3)[Fuc(a1-2)Gal(b1-3)[Fuc(a1-4)]GlcNAc(b1-2)Man(a1-6)]Man(b1-4)GlcNAc(b1-4)GlcNAc. Summed up: as §1
The next assay deals with Fuc(a1-2)Gal(b1-4)Glc. Summed up:
as §1

The next assay addresses Fuc(a1-2)Gal(b1-4)Glc6S. Summed up:
as §1

Another assay deals with Fuc(a1-2)Gal(b1-4)GlcNAc. The essentials:
as §1

Assay [9] deals with Fuc(a1-2)Gal(b1-4)GlcNAc(b1-2)Man(a1-3)[Fuc(a1-2)Gal(b1-4)GlcNAc(b1-2)Man(a1-6)]Man(b1-4)GlcNAc(b1-4)GlcNAc. Summed up: as §1
The target in assay [10] is Fuc(a1-2)Gal(b1-4)GlcNAc(b1-3)Gal(b1-4)GlcNAc. The essentials:
as §1

The target in assay [11] is Fuc(a1-2)Gal(b1-4)GlcNAc(b1-3)Gal(b1-4)GlcNAc(b1-3)Gal(b1-4)GlcNAc. Summed up:
as §1

The target in assay [12] is Fuc(a1-2)Gal(b1-4)GlcNAc6S. Summed up:
as §1

For assay [13], the target named is Fuc(a1-2)Gal(b1-4)[Fuc(a1-3)]GlcNAc. Summed up: as §1
Assay [14] deals with Fuc(a1-2)Gal(b1-4)[Fuc(a1-3)]GlcNAc(b1-2)Man(a1-3)[Fuc(a1-2)Gal(b1-4)[Fuc(a1-3)]GlcNAc(b1-2)Man(a1-6)]Man(b1-4)GlcNAc(b1-4)GlcNAc. Summed up:
as §1

Assay [15] has as its target Fuc(a1-2)Gal(b1-4)[Fuc(a1-3)]GlcNAc(b1-3)Gal(b1-4)[Fuc(a1-3)]GlcNAc. The essentials: as §1
The target of assay [16] is Fuc(a1-2)Gal(b1-4)[Fuc(a1-3)]GlcNAc(b1-3)Gal(b1-4)[Fuc(a1-3)]GlcNAc(b1-3)Gal(b1-4)[Fuc(a1-3)]GlcNAc. Summed up: as §1

B1: HHL-2 (Homo sapiens), P07307 (protein)
chain: MAKDFQDIQQLSSEENDHPFHQGEGPGTRRLNPRRGNPFLKGPPPAQPLAQRLCSMVCFSLLALSFNILLLVVICVTGSQSEGHRGAQLQAELRSLKEAFSNFSSSTLTEVQAISTHGGSVGDKITSLGAKLEKQQQDLKADHDALLFHLKHFPVDLRFVACQMELLHSNGSQRTCCPVNWVEHQGSCYWFSHSGKAWAEAEKYCQLENAHLVVINSWEEQKFIVQHTNPFNTWIGLTDSDGSWKWVDGTDYRHNYKNWAVTQPDNWHGHELGGSEDCVEVQPDGRWNDDFCLQVYRWVCEKRRNATGEVA
As for B1, the “glycan array binding signal (z-score)” value is 1.01 in the assay with Fuc(a1-2)Gal; -0.547 with Fuc(a1-2)Gal(b1-3)GalNAc; -0.188 in assay [1]; -0.718 in assay [2]; -0.656 in assay [3]; -0.123 in the assay with Fuc(a1-2)Gal(b1-3)GlcNAc. Further, the “glycan array binding signal (z-score)” value in assay [4] is -0.497; in assay [5] it was 0.196; in [6], -0.014; in assay [7] it was -0.44; in assay [8], -0.022; with Fuc(a1-2)Gal(b1-4)Glc it was -0.117. Also, the “glycan array binding signal (z-score)” value with Fuc(a1-2)Gal(b1-4)Glc6S is 0.875; with Fuc(a1-2)Gal(b1-4)GlcNAc, -0.637; in assay [9], -0.518; in [10], -0.485; in assay [11], -0.382; in [12], -0.345. For the same molecule, the “glycan array binding signal (z-score)” value in [13] is -0.464; in [14], 2.08; in [15], -0.38; in [16], 0.145.
